According to PubChem BioAssay AID540256 (National Center for Advancing Translational Sciences (NCATS), 2011):
“And” between values parts separate entries of the source, which are not always exact repeats. Identical values can stand only once. The campaign covered roughly 300,000 compounds. About 3,700 (1.2%) were called active. This list was built around the results that the source calls inconclusive (neither active nor inactive); the mix of calls is not that of the screen. The call rests on the fitted dose curve; tested in HEK293 cells. A potency beside an inconclusive call is a rough fit, not a confirmed value.

Test: qHTS for Inhibitors of binding or entry into cells for Lassa Virus; further: nearly all actives have a fitted effect of over 50% in size
Details: Lassa virus pseudotype entry inhibition, cell reporter; activity change, negative = inhibition: at 37.9 µM (top of the series) unless noted
On the % scale 0 is the no-effect control and ±100 the full control effect; potency means the concentration at half of the fitted maximal effect.

SMILES | activity change, negative = inhibition | Potency
COc1ccc(NC(=O)c2ccc(CNc3c(NC4CCCCC4)c(=O)c3=O)cc2)cc1OC | inactive: -1.96% | –
CCc1ccc2oc(-c3ccc(OC)cc3)cc(=Nc3cccc(C(=O)O)c3)c2c1 | – | inconclusive: 14.1 µM [inhibitor, single point]
CCOC(=O)C1=C(c2ccccc2)NC(SCC(=O)NC2CCCCC2)=C(C#N)C1c1ccco1 (stereo not given) | – | inconclusive: 9.2 µM [inhibitor, partial curve, poor fit]
CC(C)C1(c2ccsc2)NC(=O)NC1=O (stereo not given) | inactive: 3.92% | –
Cc1cc(NCCCn2ccnc2)n2nc(-c3ccc(F)cc3)cc2n1 | – | inconclusive: 8.2 µM [activator, partial curve, poor fit]
CC(C)c1ccc(-c2cc(C(=O)N3CCOCC3)c3cc(Br)ccc3n2)cc1 | inactive: -15.9% | –
CCOC(=O)c1ccc(NC(=S)NCCc2ccccc2)cc1 | – | inconclusive: 20 µM [inhibitor, single point]
Cc1ccc(CN2c3ccccc3-c3nc(SCC(=O)NCc4ccccc4)ncc3S2(=O)=O)cc1 | – | inconclusive: 3.16 µM [inhibitor, partial curve, poor fit]
CC1=N/C(=C/c2cccnc2)C(=O)O1 | inactive: -0.497% | –
O=C(CS(=O)(=O)c1cccc2nsnc12)NCc1ccccc1Cl | inactive: -13% [at 46.1 µM] | –
CC/C(C)=N/N1C(=O)c2ccccc2NC1(C)CC (stereo not given) | inactive: -2.43% | –
COc1ccc(CNc2ncnc3sccc23)cc1OC | – | inconclusive: 0.562 µM [inhibitor, full curve, poor fit]
COc1ccc2[nH]c(C)c(CCNC(=S)Nc3cc(C)cc(C)c3)c2c1 | inactive: -16.2% | –
CCc1nc2ccc(C(=O)NCc3ccccc3C)cc2nc1CC | – | inconclusive: 35.5 µM [inhibitor, single point]
Cc1ccc(/C=C/C(=O)c2ccccc(=O)c2O)c(C)c1 | – | inconclusive: 28.2 µM [inhibitor, single point]
Brc1ccccc1OCCCCn1cnc2ccccc21 | – | inconclusive: 7.08 µM [inhibitor, full curve]
CCCNC(=O)c1ccc(-c2nc3ccccc3s2)s1 | – | inconclusive: 5.62 µM [inhibitor, partial curve, poor fit]
CC(NCC1(N2CCOCC2)CCCCC1)C(=O)Nc1ccc(Cl)cc1Cl (stereo not given) | inactive: 11.5% [at 46.1 µM] | –
COc1ccc(CCNC(=O)c2ccc3c(c2)N(Cc2ccccc2Cl)C(=O)c2ccccc2S3)cc1OC | – | inconclusive: 3.16 µM [inhibitor, full curve, poor fit]
O=C(NCc1nnnn1-c1ccc(F)c(F)c1)C(=O)c1c[nH]c2ccccc12 | inactive: -15.7% | –
COC(=O)c1ccc(NC(=O)CN2CCN(CC#N)CC2)cc1 | – | inconclusive: 0.794 µM [inhibitor, single point]
C=CCn1c(C)cc(C(=O)COC(=O)c2ccc(N)c([N+](=O)[O-])c2)c1C | – | inconclusive: 20 µM [inhibitor, single point]

SMILES | activity change, negative = inhibition | Potency
O=S(=O)(/C=C/c1ccccc1)N1CCN(c2nc(-c3ccccc3)nc3ccccc23)CC1 | – | inconclusive: 3.16 µM [inhibitor, partial curve, poor fit]
CN(C)c1ncc(S(=O)(=O)c2ccc(Cl)cc2)c(-c2ccc(Cl)cc2Cl)n1 | – | inconclusive: 8.91 µM [inhibitor, single point]
CCOC(=O)c1cc2c(=O)n3ccccc3nc2n(CC2CCCO2)c1=NC(=O)c1cccc(C)c1 (stereo not given) | – | inconclusive: 10 µM [inhibitor, partial curve, poor fit]
Nc1nnc(SCc2ccc(F)cc2Cl)s1 | – | inconclusive: 1.03 µM [activator, full curve, poor fit]
CCN(CC(=O)Nc1ccc2c(c1)CCC2)Cc1nc2ccccc2c(=O)[nH]1 | – | inconclusive: 29.1 µM [inhibitor, single point]
COc1ccc(-c2nnn(CC(=O)N(Cc3ccc(F)cc3)C(C(=O)NC3CCCC3)c3ccc(F)cc3)n2)cc1 (stereo not given) | – | inconclusive: 0.116 µM [inhibitor, full curve, poor fit]
COc1ccc(/C=N/N2CCOCC2)cc1Cn1cc([N+](=O)[O-])cn1 | – | inconclusive: 6.31 µM [inhibitor, single point]
CN(C)CCCOC(=O)COc1ccc(C(C)(C)C)cc1 | – | inconclusive: 0.326 µM [inhibitor, partial curve]
CCOc1cc(S(=O)(=O)NCc2ccco2)c(OCC)cc1-n1cnnn1 | inactive: -0.0335% | –
Cc1ccc2c(CN3CCN(c4ccc(Cl)c(Cl)c4)CC3)cc(=O)oc2c1 | – | inconclusive: 25 µM [inhibitor, single point]
CN1CCN(NC(=O)/C=C/c2cccc([N+](=O)[O-])c2)CC1 | – | inconclusive: 10 µM [activator, single point]
Cc1ccc(NC(=O)c2ccc(Br)o2)cc1S(=O)(=O)N(C)C | – | inconclusive: 4.47 µM [inhibitor, partial curve, poor fit]
CCC(C)C(=O)N1c2ccccc2C(=C2SC(C(=O)OC)=C(C(=O)OC)S2)C(=S)C1(C)C (stereo not given) | – | inconclusive: 11.2 µM [inhibitor, partial curve, poor fit]
Cc1ccc(S(=O)(=O)NCCc2nnc3ccc(SCc4ccccc4F)nn23)cc1 | – | inconclusive: 7.94 µM [inhibitor, partial curve, poor fit]
Cc1c(NC=C(C#N)C#N)c(=O)n(-c2ccccc2)n1C | – | inconclusive: 1.26 µM [inhibitor, single point]
O=C(NCc1ccc(F)cc1)c1cc(C(=O)C2CC2)c[nH]1 | – | inconclusive: 20 µM [inhibitor, partial curve, poor fit]
Cc1c(C(=O)O)cc(C(C)(C)C)n1CCSCCO | – | inconclusive: 8.91 µM [inhibitor, partial curve, poor fit]
COc1cccc(Oc2ccc(N/C=C/C(=O)C(C)(C)C)cc2)c1 | – | inconclusive: 35.5 µM [inhibitor, single point]
CCC(=O)Nc1nc2ccc(S(C)(=O)=O)cc2s1 | inactive: 6% | –
CC(=O)Nc1cc(F)c2c(c1F)Cc1cc(F)ccc1-2 | – | inconclusive: 2.82 µM [activator, full curve]
Cn1c(SCc2ccc(Br)cc2)nc2c(c1=O)SCC2 | – | inconclusive: 15.8 µM [inhibitor, single point]
COc1cccc(NC(=O)c2ccc3snnc3c2)c1 | inactive: 14.9% | –

SMILES | activity change, negative = inhibition | Potency
CC(C(=O)Nc1ccc2c(c1)OCCO2)n1nnc(-c2ccccc2)n1 (stereo not given) | inactive: -8.11% | –
Cc1ccc(N(CC(=O)Nc2ccc(F)cc2F)S(=O)(=O)c2cccs2)cc1 | – | inconclusive: 11.2 µM [inhibitor, single point]
CCC(=O)C1=C(c2ccccc2)N(C(=O)CC)n2c(nnc2-c2ccccc2)S1 | inactive: -10.5% [at 46.1 µM] | –
O=C(CCCSc1nc2ccccc2[nH]1)NCc1ccccc1 | – | inconclusive: 0.708 µM [inhibitor, single point]
C/C(CC(=O)Nc1ccc(C)c(Cl)c1)=N\NC(=O)c1ccco1 | inactive: -18% [at 46.1 µM] | –
C=CCOC(=O)N[C@H](C(C(=O)OC)=C(C)NCc1ccccc1)c1ccc(C)cc1 | – | inconclusive: 5.96 µM [inhibitor, single point]
CC(C)(C)c1cc(NC(=O)C2CCCO2)no1 (stereo not given) | – | inconclusive: 6.51 µM [activator, partial curve]
Cc1ccc(S(=O)(=O)N2CCCc3cc(NS(=O)(=O)c4ccc(F)cc4)ccc32)cc1 | – | inconclusive: 12.6 µM [inhibitor, partial curve, poor fit]
COc1cccc(NC(=O)Cn2c(=O)n(Cc3ccc(C(=O)NCc4ccc5c(c4)OCO5)cc3)c(=O)c3ccccc32)c1 | inactive: -8.9% [at 46.1 µM] | –
O=C(Cn1nnc(-c2ccccc2NC(=O)c2cccs2)n1)Nc1ccccc1 | – | inconclusive: 28.2 µM [inhibitor, partial curve, poor fit]
O=c1c(O)c(-c2ccc(O)c(O)c2)oc2cc(O)cc(O)c12 | – | inconclusive: 35.3 µM [activator, single point] and inconclusive: 1.25 µM [activator, full curve, poor fit]
COc1ccc(C2c3c(n(C)c4ccccc34)C(=O)N2CC(=O)Nc2ccc(C)cc2Cl)cc1 (stereo not given) | – | inconclusive: 15.8 µM [inhibitor, single point]
CC(=O)Nc1ccc(C(=O)NCCc2ccccc2)cc1 | – | inconclusive: 2.51 µM [activator, full curve]
COc1ccc2[nH]cc(CCNC(=S)NCCc3ccccc3)c2c1 | – | inconclusive: 1.12 µM [activator, full curve, poor fit]
CCOc1ccc(NC(=O)CN(C)C(=O)c2cc3c(s2)CCCCC3)cc1OCC | – | inconclusive: 11.2 µM [inhibitor, partial curve]
COc1ccc(C(NC(C)=O)c2ccc3cccnc3c2O)c(OC)c1 (stereo not given) | – | active: 6.31 µM
COc1ccc2nc(NC(=O)CSc3n[nH]c(N)n3)sc2c1 | – | inconclusive: 25.1 µM [inhibitor, single point]
CCN(C(=O)COC(=O)c1ccccc1O)c1cccc2ccccc12 | inactive: -16.7% | –
CC(=O)Nc1ccc(S(=O)(=O)NCCc2c[nH]c3ccc(C)cc23)cc1 | – | inconclusive: 6.31 µM [inhibitor, partial curve]
CCCCCCc1cc2cc(-c3nnc(-c4cccc(Cl)c4)o3)c(=O)oc2cc1O | – | inconclusive: 35.5 µM [inhibitor, single point]
O=C(CN1CCCCC1)NCC(=O)Nc1ccc(Br)cc1C(=O)c1ccccc1 | – | inconclusive: 25.9 µM [inhibitor, single point]
